Source: the supplement of paper PMC7125110
± gives the standard error. The uncertainty is large for many entries.

B1: glmS ribozyme (parent)
chain: AUAAAAGCGCCAGAACUACAGAAAUGUAGUUGACGAGGAGGAGGUUUAUCGAAUUUUCGGCGGAUGCCUCCAAA

Variants of: B1
Test: self-cleavage kobs at 640 uM GlcN6P; higher = faster cleavage; RNA array
Conditions: with glucosamine-6-phosphate
How it was run: (§1)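 Barcoded glmS ribozyme variants on sequenced MiSeq chips were transcribed in situ by E. coli RNA polymerase and tracked through a hybridised Cy3 probe at 37 °C. Glucosamine-6-phosphate (40 μM to 10 mM) in HEPES/KCl/Mg(OAc)2 buffer was flowed in, and tiles were imaged over ~14 h. Signals were normalised to baseline and to non-cleaving reference variants; per-tile medians were fit to one- or two-exponential decays to give kobs. kcat and KM came from weighted Michaelis–Menten fits across concentrations.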

Row | Variant | self-cleavage kobs at 640 uM GlcN6P
1 | AUAAAAGCGCCACAACUACAGAAAUGUAGUUGGCGAGGAGGAGGUUUAUCGAAUUUUCGGCGGAUGACACCAAA [G13C A33G C67A U69A] | 6.79e-05 ± 3.4e-05 s⁻¹
2 | AUAAAAGCGCCGGAACUACAGAAAUGUAGUUGACGAGGAGGAGGUUUAUCGAAUUUUCGGCGGAUGGCUCGAAA [A12G C67G C71G] | 3.35e-05 ± 3.1e-05 s⁻¹
3 | AUAAAAGCGCGAGAACUACAGAAAUGUAGUUGACGAGGAGGAGGUUUAUCGAAUUUUCGGAGGAUGCAUCCAAA [C11G C61A C68A] | 3.62e-05 ± 2.5e-05 s⁻¹
4 | AUAAAAGCGCCGGAACUACAGAAAUGUAGUUGACGAGGUGGAGGUUGAUCGAAUUUUCGGCGGAUGCCUCCAAA [A12G A39U U47G] | 3.46e-05 ± 2e-05 s⁻¹
5 | AUAAAAGCGCCAAAACUACAGAAAUGUAGUUGACGAGGAGGAGGUUUAUCGAAUGUUCGGCGGAUGCCUCGAAA [G13A U55G C71G] | 2.43e-05 ± 2.2e-05 s⁻¹
6 | AUAAAAGCGCCAUAACUACAGAAAUGUAUUCAACGAGGAGGAGGUUUAUCGAAUUUUCGGCGGAUGCCUCCAAA [G13U G29U U31C G32A] | 5.15e-05 ± 2.7e-05 s⁻¹
7 | AUAAAAGCGCGAGAACUACAGAAAUGUAGUUGACGAGGAGGAGGUUUAUCGAAUUUUCUGCGGAUGCCUCCAAA [C11G G59U] | 2.07e-05 ± 1.9e-05 s⁻¹
8 | AUAAAAGCGCCAUAACUACAGAAAUGUAGUUGACGAGGAGGAGGGUUAUCGAAUUUUCGGCGGAUGCCUCCAAA [G13U U45G] | 1.34e-05 ± 1.2e-05 s⁻¹
9 | AUAAAAGCGCAAGAACUACAGAAAUGUAGUUGACGAGGAGGAGGUUUAUUGGAUUUUCGGCGGAUGGAUCCAAA [C11A C50U A52G C67G C68A] | 2.82e-05 ± 2.2e-05 s⁻¹
10 | AUAAAAGCGCGAGAACUACAGAAAUGUAGCUGACGAGGAGGAGGUUUAUCGAAUUUUCGGCGGAGGCCACCAAA [C11G U30C U65G U69A] | 3.15e-05 ± 2e-05 s⁻¹
11 | AUAAAAGCGCCAUAACUACAGAAAUGUAGUUGACGAGGAGGAGGUUUAUCGAAUUUUUGGCGGAUGCCUCCAAA [G13U C58U] | 3.53e-05 ± 2e-05 s⁻¹
12 | AUAAAAGCGCCGGAACUACAGAAAUGUAGUUGACGAGGAGGAGGAUUAUCGAAUUUUCGGCGGAUGCCUGCAAA [A12G U45A C70G] | 3.28e-05 ± 1.8e-05 s⁻¹
13 | AUAAAAGCGCUAGACCUACAGAAAUGUAGUUGACGAGGAGGAGGUUUAUCUAAUUUUCGGCGGAUGCCUACAAA [C11U A15C G51U C70A] | 0.000208 ± 0.00012 s⁻¹
14 | AUAAAAGCGCGAGUACUACAGAAAUGUAGUUGACGAGGAGGAGGUUUAUCGAAUUUUCGGCGGAUGCCUACAAA [C11G A14U C70A] | 4.19e-05 ± 2.5e-05 s⁻¹
15 | AUAAAAGCGCCGGAACUACAGAAAUGUAGUUGACGAAGAGGAGGUUUAUCGAAUUUUCGGCGGAUGCCUCCAAA [A12G G37A] | 2.06e-05 ± 1.6e-05 s⁻¹
16 | AUAAAAGCGCCAAAACUACAGAAAUGUAGUUGACGAGGAGGAGGUUAAUCGAAUUUUCGGCGGAUGCCUCGAAA [G13A U47A C71G] | 4.23e-05 ± 2.2e-05 s⁻¹
17 | AUAAAAGCGCCCGAACUACAGAAAUGUAGUCGACGAGGAGGAGGUUUAUCGAAAUUUCGGCGGAUGACUCCAAA [A12C U31C U54A C67A] | 2.93e-05 ± 2.1e-05 s⁻¹
18 | AUAAAAGCGCCACAAGUACAGAAAUGUAGUUGACGAGGAGGAGGUUUAUCGAAUUUUCGGCGGAUGCCAGCAAA [G13C C16G U69A C70G] | 2.63e-05 ± 2.4e-05 s⁻¹
19 | AUAAAAGCGCCCGAACUACAGAAAUGUAGUUGACGAGGAGGAGGUUUAUCGAAUGUUCGGCGGAUUUCUCCAAA [A12C U55G G66U C67U] | 6.08e-05 ± 3.1e-05 s⁻¹
20 | AUAAAAGCGCCAUAACUACAGAAAUGUAGUUGACGAGGAGGAGGAUUAUCGGAUUUUCGGCGGAUGCCUCCAAA [G13U U45A A52G] | 2.06e-05 ± 2e-05 s⁻¹
21 | AUAAAAGCGCCGGAAUUACAGAAAUGUAGUUGACGAGGAGGAGGUUUAUCGACUUUUCGGCGGAUGCCUCCAAA [A12G C16U A53C] | 3.05e-05 ± 1.9e-05 s⁻¹
22 | AUAAAAGCGCGAGAACUACAGAAAUGUAGUUGACGAGGAGGAGGUUUAUCGAACUUUCGGCGGAUGUCUACAAA [C11G U54C C67U C70A] | 2.27e-05 ± 2.2e-05 s⁻¹
23 | AUAAAAGCGCCUGAGCUACAGAAAUGUAGUUGACGAGGAGGAAGUUUAUCGAAUUUUCGGCGGAUGCCUCCAAA [A12U A15G G43A] | 3.96e-05 ± 2.6e-05 s⁻¹
24 | AUAAAAGCGCCUGAACUACAGAAAUGUAGUUGACGAGGAGGAGGUUUAUCGAAUUUUCGGCGGGUGGCUCCAAA [A12U A64G C67G] | 1.35e-05 ± 1.3e-05 s⁻¹
25 | AUAAAAGCGCCCGAACUACAGAAAUGUAGUUGACGAGGAGGAGGUUUAUAGAAUUUUCGGCGGAUGCGUCCAAA [A12C C50A C68G] | 3.72e-05 ± 2.7e-05 s⁻¹
26 | AUAAAAGCGCCUGAACUACAGAAAUGUAGUUGACGACGAGGAGGUUUAUCGAAUUUUCGGCGGAUGCCUCCAAA [A12U G37C] | 1.58e-05 ± 7.9e-06 s⁻¹
27 | AUAAAAGCGCCACAACUACAGAAAUGUAGUUGACGAGGAGGAGGUUUAUCGAACUUUCGGCGGAUGCCUCCAAA [G13C U54C] | 3.5e-05 ± 1.8e-05 s⁻¹
28 | AUAAAAGCGCUAGAACUACAGAAAUGUAGUCGACGAGGAGGAGGUUUAUCGAAUUUUCGGAGGAUGCCUCCAAA [C11U U31C C61A] | 3.04e-05 ± 2.1e-05 s⁻¹
29 | AUAAAAGCGCCGGUACUACAGAAAUGUAGUUGACGAGGAGGAGGUUUAUCGAAUUUUCGGCGGAUACCUCCAAA [A12G A14U G66A] | 1.85e-05 ± 1.2e-05 s⁻¹
30 | AUAAAAGCGCCACGACUACAGAAAUGUAGUUGACGAGGAGGAGGUAUAUCGAAUUUUCGGCGGAUGCCUCCAAA [G13C A14G U46A] | 2.92e-05 ± 2.1e-05 s⁻¹

2 entries picked at random from the list so far, as already listed:
Row | Variant | self-cleavage kobs at 640 uM GlcN6P
28 | AUAAAAGCGCUAGAACUACAGAAAUGUAGUCGACGAGGAGGAGGUUUAUCGAAUUUUCGGAGGAUGCCUCCAAA [C11U U31C C61A] | 3.04e-05 ± 2.1e-05 s⁻¹
17 | AUAAAAGCGCCCGAACUACAGAAAUGUAGUCGACGAGGAGGAGGUUUAUCGAAAUUUCGGCGGAUGACUCCAAA [A12C U31C U54A C67A] | 2.93e-05 ± 2.1e-05 s⁻¹

Variants of: B1
Test: self-cleavage kobs at 2500 uM GlcN6P; higher = faster cleavage; RNA array
Conditions: with glucosamine-6-phosphate
How it was run: as §1

Row | Variant | self-cleavage kobs at 2500 uM GlcN6P
31 | AUAAAAGCGCCAUAACUACAGAAAUGUAGUUGACGAGGAGGAGGUUUAUCGAAUUUUUGGCGGAUGCCUCCAAA [G13U C58U] | 1.29e-05 ± 1.2e-05 s⁻¹
32 | AUAAAAGCGCCCGAACUACAGAAAUGUAGUUGACGAGGAGGAGGUUUAUCGAAUGUUCGGCGGAUUUCUCCAAA [A12C U55G G66U C67U] | 5.07e-05 ± 4.2e-05 s⁻¹
33 | AUAAAAGCGCCCGAACUACAGAAAUGUAGUUGACGAGGAGGAGGUUUAUAGAAUUUUCGGCGGAUGCGUCCAAA [A12C C50A C68G] | 3.9e-05 ± 2.3e-05 s⁻¹
34 | AUAAAAGCGCUAGAACUACAGAAAUGUAGUCGACGAGGAGGAGGUUUAUCGAAUUUUCGGAGGAUGCCUCCAAA [C11U U31C C61A] | 3.3e-05 ± 2.7e-05 s⁻¹

Variants of: B1
Test: self-cleavage kobs at 160 uM GlcN6P; higher = faster cleavage; RNA array
Conditions: with glucosamine-6-phosphate
How it was run: as §1

Row | Variant | self-cleavage kobs at 160 uM GlcN6P
35 | AUAAAAGCGCGAGUACUACAGAAAUGUAGUUGACGAGGAGGAGGUUUAUCGAAUUUUCGGCGGAUGCCUACAAA [C11G A14U C70A] | 3.35e-05 ± 3e-05 s⁻¹
36 | AUAAAAGCGCCCGAACUACAGAAAUGUAGUCGACGAGGAGGAGGUUUAUCGAAAUUUCGGCGGAUGACUCCAAA [A12C U31C U54A C67A] | 2.14e-05 ± 1.8e-05 s⁻¹

Variants of: B1
Test: self-cleavage kobs at 10000 uM GlcN6P; higher = faster cleavage; RNA array
Conditions: with glucosamine-6-phosphate
How it was run: as §1

Row | Variant | self-cleavage kobs at 10000 uM GlcN6P
37 | AUAAAAGCGCCAAAACUACAGAAAUGUAGUUGACGAGGAGGAGGUUAAUCGAAUUUUCGGCGGAUGCCUCGAAA [G13A U47A C71G] | 2.7e-05 ± 1.7e-05 s⁻¹
